From ChEMBL document CHEMBL3988442, “University of Dundee, Small-Polar-MMV Screening Library” (2021).

Each number is a percent effect as filed.
The controls that fix the scale are not given in the record; negative values are as filed.
This is an unselected part of the compounds tested.

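Assay of Toxoplasma gondii numbers, read through their beta-galactosidase reporter with a colour substrate. Tested at 10 µM. The record gives no direction; the compounds picked for IC50 retests had high values, so higher reads as fewer parasites. Of about 67,000 compounds tested this way, about 260 (0.38%) reached 50% or more in at least one test.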

compound	percent effect
Cc1cccc(CN2CCc3ncnc(N4CCOCC4)c3CC2)n1.O=C(O)C(F)(F)F	16.44
Cc1nnc(SC2CCN(c3sccc3C#N)C2=O)s1 (stereo not shown)	3.165
Cn1cc(-c2cc(C(F)(F)F)n(CCCN)n2)cn1	-5.494
CCCNC(=O)Nc1ncc(-c2cccnc2)s1	-11.69
Cc1nsc(NC(=O)N2CCCCC2CCCO)n1 (stereo not shown)	-0.7372
CCN(CC)C(=O)Cn1cc(C(=O)NCCc2scnc2C)nn1	-0.5325
COc1cc(CN(C)Cc2ccncc2)c(SC)cc1OC	-3.621
[H][C@@]12CS(=O)(=O)C[C@]1([H])N(S(=O)(=O)c1ccccc1OC)CCN2C	-31.4
Cc1cc(NCCC(=O)NC2CCCC2)nc(-c2ccncc2)n1	-43.13
CCc1nnc2n1CCN(C(C(N)=O)c1ccc(F)cc1)C2 (stereo not shown)	13.12
CC(=O)Nc1cccc(CNC(=O)N(C)Cc2ccccc2)c1	6.431
c1ccc(-c2nn3c(CN4CCOCC4)nnc3s2)nc1	71.31
Cc1cc(C)c(C(=O)N(C)CCN(C)C(=O)OC(C)(C)C)[nH]1	3.901
CCN(C(=O)COc1nc(C(C)(C)C)no1)C1CC1	-4.957
O=C(NCC1(c2cccs2)CCCCC1)N1CCOC(CO)C1 (stereo not shown)	3.366
CN(C)CCOCc1ncn2c1CN(c1ncc(F)cn1)CCC2.O=C(O)C(F)(F)F	7.811
Cc1nc(C)n(CCCNC(=O)C(C)n2ccnc2C(C)C)n1 (stereo not shown)	11.68
O=C(c1ccc(CN2CC(n3cccn3)C2)cc1)N1CCCC1	-0.2887
CC(=O)NC(C)C(=O)Nc1ccc(OCc2cccc(F)c2)cc1C (stereo not shown)	-16.48
Cl.NCC1(c2cccc(Br)c2)CCOCC1	3.971
Cc1cc(-c2cnc(NCc3ccncc3)nc2C(C)C)on1	-43.27
O=C(Nc1nncs1)NC1CCOc2ccccc21 (stereo not shown)	21.61
CCn1cc(NC(=O)NCC(C)N2CCCC2)cn1 (stereo not shown)	-48.81
Cc1cn2c(CN(C)C(=O)c3ncoc3C)c(C)nc2s1	6.928
COc1ccccc1OCc1cc(C(=O)N2CC(O)C2)n[nH]1	-5.176
Cc1cnc(N2CCOC3(COCCN(c4nccs4)C3)C2)nc1 (stereo not shown)	17.33
CCCn1cc(C(=O)NCC(=O)NC2CC2)c(C)n1	-7.867
CCc1nnc2n1CCN(Cc1csc(Cc3ccccc3)n1)C2	-12.14
CC(C)N(CC1CCCN(CC(N)=O)C1)C(=O)OC(C)(C)C (stereo not shown)	-1.924
CN1CCN(C(=O)c2cc(C#N)cn2C)c2ccccc2C1	-17.1
[H][C@@]12CCN(CC3CC3)C(=O)[C@@]1([H])CN(c1ncc(C)cn1)C2	6.216
COC[C@]1(O)CCN(C2CCN(c3ccc(F)c(F)c3)CC2)CC1(C)C	7.618
CC(C)CN1CC(C(=O)N(C)CCc2cn[nH]c2)CC1=O (stereo not shown)	-0.5823
[H][C@@]12CN(S(=O)(=O)c3ccccc3)C[C@]1([H])OCC(=O)N2CCOC	4.916
CCS(=O)(=O)N1CCC(NCC2CNc3cc(C)nn3C2)CC1 (stereo not shown)	3.536
CC(Sc1nnnn1C1CCOCC1)C(=O)NC1CCCCC1 (stereo not shown)	7.599
Nc1nc(CN2CCCCC2Cn2cncn2)nc2ccccc12 (stereo not shown)	11.94
Cc1cnn(CC2CCCN2C(=O)c2csc(C(C)C)n2)c1 (stereo not shown)	3.931
CC[C@@]1(O)CCN(Cc2cc(C3CCCCC3)no2)C[C@H]1O	3.156
Brc1ccc(C2(NCc3noc(C4CC4)n3)CCC2)cc1	-4.921
NC(=O)c1cccc(CC2CCN(C(=O)CO)C2)c1 (stereo not shown)	1.97
O=C(c1cc(Cl)c2c(c1)OCO2)N1CCCC(n2cncn2)C1 (stereo not shown)	-8.509
O=C(O)C(F)(F)F.[H][C@@]12CC(=O)N(c3cccnc3)[C@@]1([H])CCN2C(=O)c1ccco1	19.75
CN(CC1CCN(CCO)CC1)CC(O)c1ccc(F)c(F)c1 (stereo not shown)	6.408
Fc1ccc(CN[C@@H]2COC[C@H]2c2ccc(F)cc2)cc1.O=C(O)CC(O)(CC(=O)O)C(=O)O	-22.89
CC(C)Cc1nc(CO)n(-c2ccc3c(c2)OCCO3)n1	10.86
O=C(NCc1ccccc1)C1CN(c2ccccn2)CCO1 (stereo not shown)	8.398
COCC(O)CN1CCC(NC(=O)c2ccccc2Cl)CC1 (stereo not shown)	-1.726
CC(C)c1ccc(/C=C/CC(=O)NC2CCN(C(N)=O)C2)cc1 (stereo not shown)	-1.176
CCCS(=O)(=O)N1CCN(c2cc(-n3cnc(C)c3C)nc(C)n2)CC1	8.426
O=C(Nc1cccn(CC(F)(F)F)c1=O)c1ccncc1F	9.155
Cc1ccccc1C(C(=O)NCCSC(C)C)N(C)C (stereo not shown)	10.74
[H][C@]12CN(c3ncc(CC)cn3)C[C@@]1([H])S(=O)(=O)CC[C@@H]2C(=O)NCC(C)C	-4.169
O=C(O)C(F)(F)F.[H][C@]12CCC(=O)N(c3ccccc3)[C@@]1([H])CCN2c1ncc(F)cn1	-8.128
CC(=O)N1CCN(C(=O)CN2CCCC2Cn2nc(C)cc2C)CC1 (stereo not shown)	32.19
Cc1cnn(CC(C)NCc2ccccc2OCc2cccnc2)c1 (stereo not shown)	-30.8
O=CO.c1cc2nccc(CC3CCCN(C4CCOCC4)CC3)c2cn1 (stereo not shown)	9.356
O=C(CN1CCSCC1c1ccccc1)N1CCCC1 (stereo not shown)	-6.435
COCC1CN(C(=O)N2CCCC2)Cc2cnn(CC3CCCC3)c21 (stereo not shown)	-2.709
Cn1c2c(c(=O)n1C)CN(C(=O)c1ccncc1F)CCC2	-1.161
CC1CCC(NS(=O)(=O)CC(=O)Nc2ccccc2N2CCCC2)CC1 (stereo not shown)	10.57
O=C(O)C(F)(F)F.[H][C@@]12CCN(C(=O)c3ccoc3)C[C@]1(COc1ncccc1F)CCO2	7.283

For reference, 4 entries once more:

{"compound": "O=C(NCc1ccccc1)C1CN(c2ccccn2)CCO1", "stereo": "stereo not shown", "percent effect": 8.398}
{"compound": "O=C(Nc1cccn(CC(F)(F)F)c1=O)c1ccncc1F", "percent effect": 9.155}
{"compound": "CC(C)c1ccc(/C=C/CC(=O)NC2CCN(C(N)=O)C2)cc1", "stereo": "stereo not shown", "percent effect": -1.176}
{"compound": "Cn1c2c(c(=O)n1C)CN(C(=O)c1ccncc1F)CCC2", "percent effect": -1.161}